Results published in patent EP4796557A1, “POLYPEPTIDE, BIOACTIVE CONJUGATE, AND PREPARATION METHOD THEREFOR AND USE THEREOF” (priority 2023, dated 2025).
These are yes or no findings as the source states them, for the method shown. Some results given as binding are weak or reduced against the parent protein; the word gives no strength.

Amino acid sequences for entries named in this document (tags omitted). A change or cut given only in a name is not applied to a line headed by its entry. Residues count along the entry.
UniProt P13726: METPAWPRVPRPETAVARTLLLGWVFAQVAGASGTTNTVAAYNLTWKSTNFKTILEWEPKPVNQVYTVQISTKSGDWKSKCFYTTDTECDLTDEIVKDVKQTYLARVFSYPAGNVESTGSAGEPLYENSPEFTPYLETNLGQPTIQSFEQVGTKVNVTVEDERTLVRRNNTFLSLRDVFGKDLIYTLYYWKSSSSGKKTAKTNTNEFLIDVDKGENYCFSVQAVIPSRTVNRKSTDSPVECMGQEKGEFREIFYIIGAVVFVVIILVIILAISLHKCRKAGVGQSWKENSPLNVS
Tissue Factor on MDA-MB-231 cells: residues 33-295 of P13726
antigen protein TF: residues 33-251 of P13726

Legend:
antigen protein TF [1] = target: antigen protein TF (UniProt P13726); test: ELISA, TF coated
[2] = target: Tissue Factor on MDA-MB-231 cells (UniProt P13726); test: flow cytometry on MDA-MB-231 cells
antigen protein TF [3] = target: antigen protein TF (UniProt P13726); test: BLI (Fortebio), antibody on ProA sensor

Measured: binding

B1: h1849-H3L3 (antibody, human IgG1, kappa, V domains shown)
VH: EVQLVESGGGVVQPGRSLRLSCAASGFTFSDYNMAWIRQAPGKGLEWVAAIIYDGTRTYYRDSVKGRFTISRDNSKSTLYLQMNSLRAEDTAVYYCATGDSYTNFAYWGQGTLVTVSS
VL: EIVLTQSPTSLSASVGDRVTITCRASSSLSYMHWYQQKPGTSPKLLIYETSKLESGVPSRFSGSGSGTDFTLTIDSLQPEDFATYYCQQGNSYPRTFGGGTKVEIKR
binds: all assays above

B2: h1849-H2L1 (antibody, human IgG1, kappa, V domains shown)
VH: EVQLVESGGGVVQPGRSLRLSCAASGFTFSDYNMAWIRQAPGKGLEWVAAIIYDGTRTYYRDSVKGRFTISRDNSKSTLYLQMDSLRAEDTAVYYCATGDSYTNFAYWGQGTLVTVSS
VL: EIVLTQSPTFLSASVGDRVTITCRASSSLSYMHWYQQKPGTSPKLLIYETSKLQSGVPSRFSGSGSGTSFTLTIDSLQPEDFATYYCQQGNSYPRTFGGGTKVEIKR
binds: all assays above
